Values of other authors as cited in patent publication US11130726B2, “Therapeutic compounds and methods of use thereof” (GENENTECH, INC., priority 2015, dated 2021).

Conditions: administered topically (Lidoderm patch); cited from earlier work

For CCN(CC)CC(=O)Nc1c(C)cccc1C [lidocaine], the plasma concentrations is given as “about 1 μM”.
